Some of the results follow. Shown are side measurements of this screen, not its main read-out; they come without a call. Compounds called inactive in the main read-out are mostly missing here. Potencies come from curve fits of mixed quality, noted in brackets.
Assay: qHTS Assay to Find Inhibitors of Chronic Active B-Cell Receptor Signaling
Details: ABC-DLBCL IkBa-CBG/CBR reporter, luminescence ratio (green luciferase fused to IkBa over red control in TMD8 lymphoma cells), 4 h; measured here: CBR red luminescence, cell number
Procedure, shortened: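 Concentration-response series (up to 46 uM) were applied to TMD8 dual-reporter cells for 4 h at 37C with doxycycline. Green/red ratio, after filter-overlap correction, defined %Activity; red signal alone was normalised to basal cells and zero luminescence.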

SMILES | AC50
N#Cc1c(-c2cccnc2)cc(-c2ccccc2)nc1N | 0.562 µM [falling, full curve, poor fit]
CCCn1c(NCc2cccc(OC)c2O)nc2ccccc21 | 5.8 µM [falling, partial curve, poor fit]
Nc1cc(C(=O)OCC(=O)NCc2ccco2)ccc1Cl | 35.5 µM [falling, single point]
CC(=O)c1ccc(S(=O)(=O)NCC(=O)Nc2nc3ccccc3[nH]2)cc1 | 16.4 µM [falling, single point]
Cc1ccnc(NC(=O)c2cc3c(=O)oc4ccc(C)cc4c3s2)c1 | 0.891 µM [rising, full curve, poor fit]
COc1cccc(N2CCN(S(=O)(=O)c3cccc4cccnc34)CC2)c1 | 15.8 µM [falling, single point]
Cc1ccc(N(C)C(=O)c2cc(S(=O)(=O)N3CCc4ccccc43)cn2C)cc1 | 35.5 µM [falling, single point]
CCN(CC)c1ccc(CNc2ccc3c(c2)ncn3CC)cc1 | 12.6 µM [rising, partial curve]
COCCNc1ncnc2c1[nH]c1ccccc12 | 10 µM [falling, partial curve, poor fit]
O=C(OCc1cccc([N+](=O)[O-])c1)c1cc(=O)[nH]c2ccccc12 | 0.708 µM [rising, full curve, poor fit]
CCN(CC)C(=O)CN1C(=O)/C(=C/c2ccccc2)SC1=S | 1.41 µM [rising, full curve]
O=C(Nc1ccc(Cl)cn1)c1ccc(-c2cc(Cl)ccc2Cl)o1 | 10 µM [rising, partial curve, poor fit]
Cc1ccccc1OCCCCc1c(C)n[nH]c1C | 35.5 µM [rising, single point]
CCOc1cccc(-c2c(C(=O)N/N=C/c3sccc3C)nnn2-c2nonc2N)c1 | 35.5 µM [falling, single point]
COc1ccc(-c2c(C)nn(-c3ccccc3)c2N)cc1OC | 3.26 µM [rising, single point]
C(=N\Nc1nc2ccccc2[nH]1)/c1ccncc1 | 12.6 µM [falling, partial curve, poor fit]
N#CCc1ccc(Oc2ncc(C(F)(F)F)cc2Cl)cc1 | 35.5 µM [rising, single point]
Cc1c(C(=O)C(=O)N2c3ccc(F)cc3CCC2C)c2ccccc2n1C (centres undefined) | 20.6 µM [rising, single point]
CC(C)C(=O)Nc1nnc(CSCc2ccccc2F)s1 | 4.11 µM [rising, partial curve, poor fit]

Quoted at random: two entries already listed.
SMILES | AC50
CC(C)C(=O)Nc1nnc(CSCc2ccccc2F)s1 | 4.11 µM [rising, partial curve, poor fit]
CCOc1cccc(-c2c(C(=O)N/N=C/c3sccc3C)nnn2-c2nonc2N)c1 | 35.5 µM [falling, single point]
